# No constants are given. Whether binding was seen depends on the method and setting. Binding seen in cells or lysates may run through a third protein. Some binding calls cover weakened binding; strength is not graded here.
# Chains of the proteins cited; added tags and fusions are not shown.
# UniProt Q12905: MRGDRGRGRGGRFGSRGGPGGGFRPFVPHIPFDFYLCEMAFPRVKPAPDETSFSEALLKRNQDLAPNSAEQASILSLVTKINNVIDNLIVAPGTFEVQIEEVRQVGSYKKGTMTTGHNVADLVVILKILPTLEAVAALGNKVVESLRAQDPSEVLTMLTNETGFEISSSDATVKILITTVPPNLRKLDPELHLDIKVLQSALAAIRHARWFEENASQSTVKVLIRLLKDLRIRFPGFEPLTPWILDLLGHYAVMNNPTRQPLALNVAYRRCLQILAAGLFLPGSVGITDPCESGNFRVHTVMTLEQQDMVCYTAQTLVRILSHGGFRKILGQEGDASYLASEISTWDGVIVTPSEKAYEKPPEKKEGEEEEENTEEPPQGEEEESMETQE
# Biological target: T1, Serine hydroxymethyltransferase 2 (SHMT2) (human (endogenous in CAL-27)) (UniProt P34897)
# T1 sequence: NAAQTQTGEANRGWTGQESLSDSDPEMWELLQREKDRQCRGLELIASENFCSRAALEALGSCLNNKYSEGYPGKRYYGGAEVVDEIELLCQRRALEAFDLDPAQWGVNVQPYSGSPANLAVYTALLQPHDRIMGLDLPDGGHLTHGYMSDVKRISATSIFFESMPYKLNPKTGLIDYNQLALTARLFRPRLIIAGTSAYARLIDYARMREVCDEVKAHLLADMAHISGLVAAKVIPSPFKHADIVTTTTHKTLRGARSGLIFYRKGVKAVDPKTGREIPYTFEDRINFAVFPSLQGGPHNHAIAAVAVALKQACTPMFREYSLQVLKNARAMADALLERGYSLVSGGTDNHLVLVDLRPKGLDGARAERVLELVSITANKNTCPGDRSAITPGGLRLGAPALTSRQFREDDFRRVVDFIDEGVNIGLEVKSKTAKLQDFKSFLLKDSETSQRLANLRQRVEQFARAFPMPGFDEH
# Assay: co-IP; CAL-27 cells lysed on ice for 30 min in RIPA lysis buffer with protease inhibitors; lysate added to protein A agarose-coupled anti-IgG, anti-SHMT2 or anti-ILF2
substance,measurement,value
Interleukin enhancer-binding factor 2 (ILF2) (from UniProt Q12905 1-390),binding,binds
